# Laboratory results: PubChem BioAssay AID652272 (Drosophila RNAi Screening Center, 2013)
# Screen: 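Finding fly genes that regulate Hedgehog signal transduction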 (primary screen)
# Cell system: Drosophila clone 8 (Cl8) cells
# Reagent: long dsRNA against Drosophila genes
# Detection: 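Plate reader light from a firefly reporter under a ptc promoter fragment that responds to Hedgehog, with Renilla light as transfection reference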
# Scale: firefly Hh reporter signal: higher = more ptc reporter light; Renilla reference signal: higher = more Renilla control light
# Call rule: 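Called a hit if the two-replicate mean z-score lies below -2 or above +3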
# Meaning of the calls: active = hit: reporter lowered or raised; inactive = not a hit
# The deposit covers about 21,000 reagents; this is a random part of those with a known target gene and a result. Of all reagents, 503 (2.4%) got an active call. 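Raw plate light values, not normalised; calls rest on replicate z-scores that were not deposited; hits include reporter decreases as well as increases.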 A number with no mark means an inactive call. A plus sign joins genes that one reagent is predicted to hit. Not stated in the record: the amount of reagent, the time to read-out.
gene,PubChem SID,"firefly Hh reporter signal, replicate 1","firefly Hh reporter signal, replicate 2","firefly Hh reporter signal, replicate 3","Renilla reference signal, replicate 1","Renilla reference signal, replicate 2"
Obp83a,SID104192154,65212,93184,,2985,3229
CG13004,SID104199315,66371,1.83e5,,2075,7669
CG43341,SID104184847,1.29e5,3.13e5,,3464,11736
CG9451,SID104190866,97821,86506,,3682,2221
CG12017,SID104188017,92480,39764,,3491,3328
nAChRalpha3,SID104198592,67712,3.56e5,,2056,12204
CG43278 (retired record),SID104197316,3.48e5,1.24e5,,17780,3040
ais,SID104190315,1.17e5,48931,,3949,1939
Klp67A + CG34456,SID104190212,69474,66858,68452,5128,5138
CG31710,SID104180881,7.64e5,7.75e5,3.50e5,37832,5787
CG13028,SID104189700,1.49e5,,,7411,4328
Jasper,SID104196144,81895,59411,,1783,1880
CG14634,SID104197736,50459,2.14e5,,1010,7079
del,SID104182962,95741,1.33e5,,4457,4875
sv,SID104197013,54231,1.84e5,,1829,7556
Ahcy,SID104199121,84044,82172,,2407,2301
CG10462,SID104181850,67869,34192,,2525,1920
CG13653,SID104194445,4.59e5,94241,,25897,7540
GstE4,SID104186466,97752,40756,,2955,3201
CG13058,SID104189733,1.61e5,,,2493,5144
dati,SID104196920,1.07e5,57600,,2562,1717
dati,SID104196932,77857,2.05e5,,2902,6764
dati,SID104196945,1.12e5,2.73e5,,4162,10024
ChAT,SID104193106,56470,2.89e5,,11656,5563
ChAT,SID104196401,5.91e5,1.06e5,,30039,2464
CG5883,SID104190344,11433,37016,38509,3829,2952
CG14683,SID104196827,1.11e5,80563,,4516,2741
mRpL15,SID104191563,1.18e5,1.34e5,,4832,5060
CG30431,SID104184694,1.75e5,94764,,6336,3249
CG30431,SID104184696,1.13e5,88759,,2813,7162
CG5273,SID104198404,95083,1.81e5,,3488,6583
Bet1,SID104189880,83494,94331,,1837,2042
CG4151,SID104198143,95104,1.65e5,,3237,6119
CG2608,SID104182501,83312,42840,,2517,1552
CG30192,SID104183769,92614,2.83e5,,2402,12633
Wdfy2,SID104182614,88640,67907,,3892,3008
dpr19,SID104182029,1.22e5,72167,,3115,6289
CG11168,SID104194084,99100,86597,,4186,3739
tfc,SID104187745,1.09e5,2.48e5,,3380,9361
tfc,SID104187746,1.01e5,1.94e5,,3200,8002
tfc,SID104188418,1.08e5,1.01e5,,5664,4343
CG10809,SID104189594,52256,83513,54576,8275,3409
Ag5r,SID104199119,1.12e5,60200,,2723,1571
CG43293,SID104188589,1.24e5,2.11e5,,2912,7488
Fem-1,SID104187114,79258,48775,,2444,3490
CG32548,SID104199419,90162,3.30e5,,1560,11590
CG32548,SID104199774,1.10e5,79232,,2736,2114
mRpS22,SID104194280,61737,94776,,1289,2810
CG17362,SID104190059,96816,,,4235,2716
Tbc1d15-17,SID104180105,1.25e5,39840,,5096,2632
CG42591,SID104188697,1.26e5,2.47e5,,3225,9280
Gas41,SID104182948,49445,35979,,2045,1703
Mical,SID104194141,66019,1.16e5,,2112,2960
Mical,SID104194143,1.02e5,1.38e5,,2952,4417
Mical,SID104195157,93029,1.14e5,,2599,3165
Mical,SID104195158,79600,1.17e5,,2644,2992
CG11381,SID104197572,43370,1.06e5,,1339,4528
CG10357,SID104187947,81673,41671,,2615,3223
mts,SID104183366,41014 (active),18534,,2779,1800
Ctu2,SID104181816,1.33e5,1.00e5,,5574,4504
CSN1a,SID104181743,73329,62854,,2067,6555
CG8195,SID104186895,1.18e5,87812,,5609,3600
CG8833,SID104190842,71667,61651,,2898,2087
CG42394 + CG6567,SID104192613,4.69e5,,,10029,
CG17974,SID104184091,1.02e5,1.08e5,,2529,7896
Stacl,SID104185345,61547,98772,,8231,4970
Stacl,SID104186052,82257,64821,,2164,4401
Stacl,SID104186053,82748,58464,,2278,4321
Stacl,SID104186569,90721,59858,,2656,4135
Stacl,SID104186883,1.78e5 (active),74898,71484,13494,3837
CG32686,SID104197437,4.75e5,1.72e5,,28560,4402
CG12024,SID104188021,1.23e5,92601,,5365,3984
Camp,SID104186796,81830,54976,,1509,3914

7 of these entries, set out differently.
| gene | PubChem SID | firefly Hh reporter signal, replicate 1 | firefly Hh reporter signal, replicate 2 | firefly Hh reporter signal, replicate 3 | Renilla reference signal, replicate 1 | Renilla reference signal, replicate 2 |
| --- | --- | --- | --- | --- | --- | --- |
| CG17974 | SID104184091 | 1.02e5 | 1.08e5 | – | 2529 | 7896 |
| Stacl | SID104185345 | 61547 | 98772 | – | 8231 | 4970 |
| Stacl | SID104186052 | 82257 | 64821 | – | 2164 | 4401 |
| Stacl | SID104186053 | 82748 | 58464 | – | 2278 | 4321 |
| Stacl | SID104186569 | 90721 | 59858 | – | 2656 | 4135 |
| Stacl | SID104186883 | 1.78e5 (active) | 74898 | 71484 | 13494 | 3837 |
| CG32686 | SID104197437 | 4.75e5 | 1.72e5 | – | 28560 | 4402 |
